# Results are given in words; binding and its absence hold for the method and conditions named. In cells and extracts the contact can be indirect. Binding can be weak; no strength is given.
# Chains of the proteins cited; added tags and fusions are not shown. Lines headed by an entry give the natural chain unless they say otherwise; changes in a name come on top.
# UniProt Q08655: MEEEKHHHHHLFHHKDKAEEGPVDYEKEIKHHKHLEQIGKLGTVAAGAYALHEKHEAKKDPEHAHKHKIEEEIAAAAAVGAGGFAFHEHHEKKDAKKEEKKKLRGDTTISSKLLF
# Biological target: ASR1:GUS:vNLS:cVenus (tomato) (UniProt Q08655)
# Assay: split reporter; BiFC with split Venus; ASR1, ASR1:GUS and ASR1:GUS:vNLS fusions co-expressed in N. benthamiana leaves, confocal microscopy with DAPI staining
substance,measurement,value
ASR1:GUS fused to the amino-terminal half of Venus (from UniProt Q08655),binding,binds

# From publication PMC3416805
